The target of assay [1] is Aß1-42 preparations consisting predominantly of higher oligomers (Oli) (UniProt P05067). Put plainly: ELISA, ABP coated on the plate, Aß in solution, 6E10 or 4G8 detection.
The target is the same in assay [2]. Put plainly: ELISA, ABP coated on the plate, Aß1-42 preparation in solution, bound Aß detected with 6E10 or 4G8.

Sequences of proteins named here, by UniProt entry; tags and fusion partners are left off. Residues count along the entry.
UniProt P05067, residues 672-713: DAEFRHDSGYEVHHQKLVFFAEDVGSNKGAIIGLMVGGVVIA

No constants are given. Whether binding was seen depends on the method and setting. Some results given as binding are weak or reduced against the parent protein; the word gives no strength.

B1: free ABP (synthetic) (peptide)
peptide: KTFKTRKASAQASLASKDKTPKSKSKKRNSTQLKSRVKNI
For B1, the binding entry in assay [1] and in assay [2] was “binds” each time.
